# Some of the results follow.
# B1: LERP (Drosophila melanogaster), B7Z0Q8 (protein)
# chain: MRCSLQKDCAAPTQENFRQMRFPIVISLLLLLFCSGESVAADAANQLKFSTTECKLKEPIYGSTFDFSGLHSDLAHVVKSMNIGGDQFEFNICGNLSRTCNGESNVAACLKRQGKEYILGRQHELFYNNGNMFLKYKSGAKCDNGTADKPNYQLHVMFSCDYTLDAQPMHVTPYANEVCSFYISYRTPLACLSIPEGLQSNSCRVGDTKSNGTFDLMPLSDSNYHTSNRQGAFFVINVCKPVLYGENSMCPAGSSVCLFDSKATNPKERFINFGNVQTHPVVEKGQLLLRHESPTPCAKNSSANYTSVIYFSCDKFIRNAHPEFAGLGADSCTYQFNFATPLACNDLKPCTAFTSTNELLDLSSLSSKPARTLLKDGKNYTIAVCAHAGAPCQENGGACYEQNSTTISLGNSNSQLRFNQTGSLYLLYEDGAECSTATGMRRWSTKIEFVCANNATKDNGASTAGGSDSLKIIEDSNCQLLIQYQTPLACREPIRCKATTYVDHTNDGLGSSGDELIDLTPLISATDNYEARVELPASMEHLVPKTTKFFLNVCRPLVPKYQLGCAGGSAACMAKVTAAGAPEEERSMGFPLVSLTQRNRTFAELAYLKGDPCPTDNTSELSTHILFNCNMRAGRGQPVLRSVEDCAYRFEWETNVFCPPHECTFSADTCDLVHDELGRRFNFKSAPFTKDGKIEIDYNATKMSVNICGAHRKAMTDYSQALVNIFFTHESPNCGREGTMNVQIRLICSDQTESSSTISSDQQCNLLYVQRTPSICEFLSLGATQQNFESNGSTSSSTSSSSTSTTTSTTTQASPAGKPTKAATSTTTTTVGPDPAATPIGPTASVGTILGAILSVTFCVTCLGLLAFSPARRQRIRRLFRRSNSAVRYSRVQSNEEANLLLEPNGEFTESDDDMLL
# Legend:
# Experiment in all cases: glycan array binding signal (z-score within array); higher = stronger binding
# Settings in all cases: glycan notation: IUPAC condensed, linker removed
# [1] = target: Gal3S(b1-4)[Fuc(a1-3)]Glc
# Method in brief: (§1)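 Glycan array data came from 3228 arrays in the Consortium for Functional Glycomics database, and only arrays with an available protein sequence were kept. Glycan names were put into IUPAC-condensed notation, and columns mapping to the same glycan were averaged. The binding signal is a within-array Z-score, averaged across arrays of one protein sequence run at different concentrations or buffers and across linkers. A negative Z-score can be read as non-binding.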
# [2] = target: Gal3S(b1-4)[Fuc(a1-3)]Glc6S
# Method in brief: as §1
# Gal3S4S(b1-4)GlcNAc = target: Gal3S4S(b1-4)GlcNAc
# Method in brief: as §1
# Gal3S6S(b1-4)GlcNAc = target: Gal3S6S(b1-4)GlcNAc
# Method in brief: as §1
# Gal3S6S(b1-4)GlcNAc6S = target: Gal3S6S(b1-4)GlcNAc6S
# Method in brief: as §1
# Gal4S(b1-4)GlcNAc = target: Gal4S(b1-4)GlcNAc
# Method in brief: as §1
# Gal4S6S(b1-4)GlcNAc = target: Gal4S6S(b1-4)GlcNAc
# Method in brief: as §1
# Gal6S(b1-4)Glc = target: Gal6S(b1-4)Glc
# Method in brief: as §1
# Gal6S(b1-4)Glc6S = target: Gal6S(b1-4)Glc6S
# Method in brief: as §1
# Gal6S(b1-4)GlcNAc = target: Gal6S(b1-4)GlcNAc
# Method in brief: as §1
# Gal6S(b1-4)GlcNAc6S = target: Gal6S(b1-4)GlcNAc6S
# Method in brief: as §1
# GalNAc(a1-3)Gal = target: GalNAc(a1-3)Gal
# Method in brief: as §1
# GalNAc(a1-3)GalNAc = target: GalNAc(a1-3)GalNAc
# Method in brief: as §1
# [3] = target: GalNAc(a1-3)GalNAc(a1-3)Gal(a1-4)Gal(b1-4)GlcNAc
# Method in brief: as §1
# GalNAc(b1-3)Gal = target: GalNAc(b1-3)Gal
# Method in brief: as §1
# [4] = target: GalNAc(b1-3)Gal(a1-4)Gal(b1-4)GlcNAc
# Method in brief: as §1
# [5] = target: GalNAc(b1-3)Gal(a1-4)Gal(b1-4)GlcNAc(b1-3)Gal(b1-4)Glc
# Method in brief: as §1
# [6] = target: GalNAc(b1-3)Gal(a1-6)Gal(b1-4)Glc
# Method in brief: as §1
# GalNAc(b1-3)GalNAc = target: GalNAc(b1-3)GalNAc
# Method in brief: as §1
# GalNAc(b1-4)GlcNAc = target: GalNAc(b1-4)GlcNAc
# Method in brief: as §1
# [7] = target: GalNAc(b1-4)GlcNAc(b1-2)Man(a1-3)[GalNAc(b1-4)GlcNAc(b1-2)Man(a1-6)]Man(b1-4)GlcNAc(b1-4)GlcNAc
# Method in brief: as §1
# Glc(a1-4)Glc = target: Glc(a1-4)Glc
# Method in brief: as §1
# Glc(a1-6)Glc(a1-6)Glc = target: Glc(a1-6)Glc(a1-6)Glc
# Method in brief: as §1
# Glc(b1-4)Glc = target: Glc(b1-4)Glc
# Method in brief: as §1
# Glc(b1-6)Glc = target: Glc(b1-6)Glc
# Method in brief: as §1
# GlcA(b1-3)Gal = target: GlcA(b1-3)Gal
# Method in brief: as §1
# GlcA(b1-3)GlcNAc = target: GlcA(b1-3)GlcNAc
# Method in brief: as §1
# GlcA(b1-6)Gal = target: GlcA(b1-6)Gal
# Method in brief: as §1
# [8] = target: GlcNAc(a1-3)Gal(b1-4)GlcNAc
# Method in brief: as §1
# [9] = target: GlcNAc(a1-4)Gal(b1-3)GlcNAc
# Method in brief: as §1
# [10] = target: GlcNAc(a1-4)Gal(b1-4)GalNAc
# Method in brief: as §1
# [11] = target: GlcNAc(a1-4)Gal(b1-4)GlcNAc
# Method in brief: as §1
# [12] = target: GlcNAc(a1-4)Gal(b1-4)GlcNAc(b1-3)Gal(b1-4)Glc
# Method in brief: as §1
# [13] = target: GlcNAc(a1-4)Gal(b1-4)GlcNAc(b1-3)Gal(b1-4)GlcNAc
# Method in brief: as §1
# [14] = target: GlcNAc(a1-4)Gal(b1-4)GlcNAc(b1-3)Gal(b1-4)GlcNAc(b1-3)Gal(b1-4)GlcNAc
# Method in brief: as §1
# [15] = target: GlcNAc(a1-4)Gal(b1-4)GlcNAc(b1-3)Gal(b1-4)[Fuc(a1-3)]GlcNAc(b1-3)Gal(b1-4)[Fuc(a1-3)]GlcNAc
# Method in brief: as §1
# [16] = target: GlcNAc(a1-6)Gal(b1-4)GlcNAc
# Method in brief: as §1
# [17] = target: GlcNAc(b1-2)Gal(b1-3)GalNAc
# Method in brief: as §1
# [18] = target: GlcNAc(b1-2)Man(a1-3)[GlcNAc(b1-2)Man(a1-6)]Man(b1-4)GlcNAc(b1-4)GlcNAc
# Method in brief: as §1
# [19] = target: GlcNAc(b1-2)Man(a1-3)[GlcNAc(b1-2)Man(a1-6)]Man(b1-4)GlcNAc(b1-4)[Fuc(a1-6)]GlcNAc
# Method in brief: as §1
# [20] = target: GlcNAc(b1-2)[GlcNAc(b1-4)]Man(a1-3)[GlcNAc(b1-2)Man(a1-6)]Man(b1-4)GlcNAc(b1-4)GlcNAc
# Method in brief: as §1
# GlcNAc(b1-3)Gal = target: GlcNAc(b1-3)Gal
# Method in brief: as §1
# [21] = target: GlcNAc(b1-3)Gal(b1-3)GalNAc
# Method in brief: as §1
# GlcNAc(b1-3)Gal(b1-4)Glc = target: GlcNAc(b1-3)Gal(b1-4)Glc
# Method in brief: as §1
# [22] = target: GlcNAc(b1-3)Gal(b1-4)GlcNAc
# Method in brief: as §1
# [23] = target: GlcNAc(b1-3)Gal(b1-4)GlcNAc(b1-3)Gal(b1-4)GlcNAc
# Method in brief: as §1
# GlcNAc(b1-3)GalNAc = target: GlcNAc(b1-3)GalNAc
# Method in brief: as §1
# GlcNAc(b1-3)Man = target: GlcNAc(b1-3)Man
# Method in brief: as §1
# [24] = target: GlcNAc(b1-3)[GlcNAc(b1-4)][GlcNAc(b1-6)]GlcNAc
# Method in brief: as §1
# [25] = target: GlcNAc(b1-3)[GlcNAc(b1-6)]Gal(b1-4)GlcNAc
# Method in brief: as §1
# [26] = target: GlcNAc(b1-3)[GlcNAc(b1-6)]GalNAc
# Method in brief: as §1
# [27] = target: GlcNAc(b1-4)Gal(b1-4)GlcNAc
# Method in brief: as §1
# GlcNAc(b1-4)GlcNAc = target: GlcNAc(b1-4)GlcNAc
# Method in brief: as §1
# [28] = target: GlcNAc(b1-4)GlcNAc(b1-4)GlcNAc
# Method in brief: as §1
# [29] = target: GlcNAc(b1-4)GlcNAc(b1-4)GlcNAc(b1-4)GlcNAc(b1-4)GlcNAc
# Method in brief: as §1
# [30] = target: GlcNAc(b1-4)GlcNAc(b1-4)GlcNAc(b1-4)GlcNAc(b1-4)GlcNAc(b1-4)GlcNAc
# Method in brief: as §1
# [31] = target: GlcNAc(b1-4)[GlcNAc(b1-6)]GalNAc
# Method in brief: as §1
# [32] = target: GlcNAc(b1-6)Gal(b1-4)GlcNAc
# Method in brief: as §1
# GlcNAc(b1-6)GalNAc = target: GlcNAc(b1-6)GalNAc
# Method in brief: as §1
# GlcNAc3Prop(b1-4)GlcNAc = target: GlcNAc3Prop(b1-4)GlcNAc
# Method in brief: as §1
binder,measurement,setting,value
B1,glycan array binding signal (z-score),[1],0.613
same,glycan array binding signal (z-score),[2],1.16
same,glycan array binding signal (z-score),Gal3S4S(b1-4)GlcNAc,-0.317
same,glycan array binding signal (z-score),Gal3S6S(b1-4)GlcNAc,-0.799
same,glycan array binding signal (z-score),Gal3S6S(b1-4)GlcNAc6S,0.685
same,glycan array binding signal (z-score),Gal4S(b1-4)GlcNAc,-0.871
same,glycan array binding signal (z-score),Gal4S6S(b1-4)GlcNAc,0.955
same,glycan array binding signal (z-score),Gal6S(b1-4)Glc,0.053
same,glycan array binding signal (z-score),Gal6S(b1-4)Glc6S,-0.364
same,glycan array binding signal (z-score),Gal6S(b1-4)GlcNAc,-0.017
same,glycan array binding signal (z-score),Gal6S(b1-4)GlcNAc6S,0.038
same,glycan array binding signal (z-score),GalNAc(a1-3)Gal,-0.561
same,glycan array binding signal (z-score),GalNAc(a1-3)GalNAc,-0.435
same,glycan array binding signal (z-score),[3],0.26
same,glycan array binding signal (z-score),GalNAc(b1-3)Gal,0.282
same,glycan array binding signal (z-score),[4],-0.234
same,glycan array binding signal (z-score),[5],-0.94
same,glycan array binding signal (z-score),[6],-0.9
same,glycan array binding signal (z-score),GalNAc(b1-3)GalNAc,0.145
same,glycan array binding signal (z-score),GalNAc(b1-4)GlcNAc,-0.735
same,glycan array binding signal (z-score),[7],2.15
same,glycan array binding signal (z-score),Glc(a1-4)Glc,-0.61
same,glycan array binding signal (z-score),Glc(a1-6)Glc(a1-6)Glc,0
same,glycan array binding signal (z-score),Glc(b1-4)Glc,-0.464
same,glycan array binding signal (z-score),Glc(b1-6)Glc,-0.186
same,glycan array binding signal (z-score),GlcA(b1-3)Gal,-0.753
same,glycan array binding signal (z-score),GlcA(b1-3)GlcNAc,-0.222
same,glycan array binding signal (z-score),GlcA(b1-6)Gal,-0.571
same,glycan array binding signal (z-score),[8],-0.603
same,glycan array binding signal (z-score),[9],-0.828
same,glycan array binding signal (z-score),[10],0.393
same,glycan array binding signal (z-score),[11],-1.06
same,glycan array binding signal (z-score),[12],-0.791
same,glycan array binding signal (z-score),[13],-0.396
same,glycan array binding signal (z-score),[14],-0.742
same,glycan array binding signal (z-score),[15],3.64
same,glycan array binding signal (z-score),[16],-0.627
same,glycan array binding signal (z-score),[17],-0.531
same,glycan array binding signal (z-score),[18],0.327
same,glycan array binding signal (z-score),[19],6.93
same,glycan array binding signal (z-score),[20],-0.732
same,glycan array binding signal (z-score),GlcNAc(b1-3)Gal,-1.15
same,glycan array binding signal (z-score),[21],-0.66
same,glycan array binding signal (z-score),GlcNAc(b1-3)Gal(b1-4)Glc,0.761
same,glycan array binding signal (z-score),[22],-0.94
same,glycan array binding signal (z-score),[23],-0.08
same,glycan array binding signal (z-score),GlcNAc(b1-3)GalNAc,-0.372
same,glycan array binding signal (z-score),GlcNAc(b1-3)Man,-0.423
same,glycan array binding signal (z-score),[24],0.739
same,glycan array binding signal (z-score),[25],-0.741
same,glycan array binding signal (z-score),[26],-0.07
same,glycan array binding signal (z-score),[27],-0.229
same,glycan array binding signal (z-score),GlcNAc(b1-4)GlcNAc,-0.456
same,glycan array binding signal (z-score),[28],-0.554
same,glycan array binding signal (z-score),[29],-0.437
same,glycan array binding signal (z-score),[30],-0.524
same,glycan array binding signal (z-score),[31],0.075
same,glycan array binding signal (z-score),[32],0.523
same,glycan array binding signal (z-score),GlcNAc(b1-6)GalNAc,-0.122
same,glycan array binding signal (z-score),GlcNAc3Prop(b1-4)GlcNAc,-0.064

# From the supplement of paper PMC8728848
